Results reported in the supplement of paper PMC8728848.
This is one part of the list.

How the values were obtained:
Assay in all cases: glycan array binding signal (z-score within array); higher = stronger binding
Settings in all cases: glycan notation: IUPAC condensed, linker removed
[1] = biological target: Gal(b1-4)GlcNAc(b1-3)Gal(b1-4)GlcNAc(b1-6)[Gal(b1-3)]GalNAc
Outline: (§1)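 Arrays were curated from the Consortium for Functional Glycomics database, 3228 in total, and kept only where the protein sequence was available. Binding is expressed as a within-array Z-score. This score was averaged across arrays of the same protein sequence at different concentrations or buffers and across linkers, and negative values can be read as non-binding.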

[2] = biological target: Gal(b1-4)GlcNAc(b1-3)Gal(b1-4)[Fuc(a1-3)]GlcNAc(b1-3)Gal(b1-4)[Fuc(a1-3)]GlcNAc
Outline: as §1

[3] = biological target: Gal(b1-4)GlcNAc(b1-3)GalNAc
Outline: as §1

[4] = biological target: Gal(b1-4)GlcNAc(b1-3)[Fuc(a1-3)GlcNAc(b1-6)]Gal(b1-4)Glc
Outline: as §1

[5] = biological target: Gal(b1-4)GlcNAc(b1-3)[Gal(b1-4)GlcNAc(b1-6)]Gal(b1-4)GlcNAc
Outline: as §1

[6] = biological target: Gal(b1-4)GlcNAc(b1-3)[GlcNAc(b1-6)]Gal(b1-4)GlcNAc
Outline: as §1

[7] = biological target: Gal(b1-4)GlcNAc(b1-6)Gal(b1-4)GlcNAc
Outline: as §1

[8] = biological target: Gal(b1-4)GlcNAc(b1-6)GalNAc
Outline: as §1

[9] = biological target: Gal(b1-4)GlcNAc(b1-6)[Gal(b1-3)]GalNAc
Outline: as §1

[10] = biological target: Gal(b1-4)GlcNAc(b1-6)[Gal(b1-4)GlcNAc(b1-3)]GalNAc
Outline: as §1

Gal(b1-4)GlcNAc6P = biological target: Gal(b1-4)GlcNAc6P
Outline: as §1

Gal(b1-6)Gal = biological target: Gal(b1-6)Gal
Outline: as §1

Gal3S(b1-3)GalNAc = biological target: Gal3S(b1-3)GalNAc
Outline: as §1

Gal3S(b1-3)GlcNAc = biological target: Gal3S(b1-3)GlcNAc
Outline: as §1

[11] = biological target: Gal3S(b1-3)[Fuc(a1-4)]GlcNAc
Outline: as §1

Gal3S(b1-4)Glc = biological target: Gal3S(b1-4)Glc
Outline: as §1

Gal3S(b1-4)Glc6S = biological target: Gal3S(b1-4)Glc6S
Outline: as §1

Gal3S(b1-4)GlcNAc = biological target: Gal3S(b1-4)GlcNAc
Outline: as §1

[12] = biological target: Gal3S(b1-4)[Fuc(a1-3)]Glc6S
Outline: as §1

[13] = biological target: Gal3S(b1-4)[Fuc(a1-3)]GlcNAc
Outline: as §1

[14] = biological target: Gal3S(b1-4)[Fuc(a1-3)]GlcNAc6S
Outline: as §1

Gal3S4S(b1-4)GlcNAc = biological target: Gal3S4S(b1-4)GlcNAc
Outline: as §1

Gal3S6S(b1-4)GlcNAc = biological target: Gal3S6S(b1-4)GlcNAc
Outline: as §1

Gal3S6S(b1-4)GlcNAc6S = biological target: Gal3S6S(b1-4)GlcNAc6S
Outline: as §1

Gal4S(b1-4)GlcNAc = biological target: Gal4S(b1-4)GlcNAc
Outline: as §1

Gal4S6S(b1-4)GlcNAc = biological target: Gal4S6S(b1-4)GlcNAc
Outline: as §1

Gal6P(b1-4)GlcNAc = biological target: Gal6P(b1-4)GlcNAc
Outline: as §1

Gal6S(b1-3)GlcNAc = biological target: Gal6S(b1-3)GlcNAc
Outline: as §1

Gal6S(b1-3)GlcNAc6S = biological target: Gal6S(b1-3)GlcNAc6S
Outline: as §1

Gal6S(b1-4)Glc = biological target: Gal6S(b1-4)Glc
Outline: as §1

Gal6S(b1-4)Glc6S = biological target: Gal6S(b1-4)Glc6S
Outline: as §1

Gal6S(b1-4)GlcNAc = biological target: Gal6S(b1-4)GlcNAc
Outline: as §1

Gal6S(b1-4)GlcNAc6S = biological target: Gal6S(b1-4)GlcNAc6S
Outline: as §1

GalNAc(a1-3)Gal = biological target: GalNAc(a1-3)Gal
Outline: as §1

GalNAc(a1-3)GalNAc = biological target: GalNAc(a1-3)GalNAc
Outline: as §1

[15] = biological target: GalNAc(a1-3)GalNAc(b1-3)Gal(a1-4)Gal(b1-4)Glc
Outline: as §1

[16] = biological target: GalNAc(a1-3)GalNAc(b1-3)Gal(a1-4)Gal(b1-4)GlcNAc
Outline: as §1

GalNAc(b1-3)Gal = biological target: GalNAc(b1-3)Gal
Outline: as §1

[17] = biological target: GalNAc(b1-3)Gal(a1-4)Gal(b1-4)GlcNAc
Outline: as §1

[18] = biological target: GalNAc(b1-3)Gal(a1-4)Gal(b1-4)GlcNAc(b1-3)Gal(b1-4)Glc
Outline: as §1

[19] = biological target: GalNAc(b1-3)Gal(a1-6)Gal(b1-4)Glc
Outline: as §1

GalNAc(b1-3)GalNAc = biological target: GalNAc(b1-3)GalNAc
Outline: as §1

GalNAc(b1-3)GlcNAc = biological target: GalNAc(b1-3)GlcNAc
Outline: as §1

GalNAc(b1-4)Gal(b1-4)Glc = biological target: GalNAc(b1-4)Gal(b1-4)Glc
Outline: as §1

GalNAc(b1-4)GlcNAc = biological target: GalNAc(b1-4)GlcNAc
Outline: as §1

B1: pilr alpha (protein)
chain: MLYGVTQPKHLSASMGGSVEIPFSFYYPWELATAPDVRISWRRGHFHRQSFYSTRPPSIHKDYVNRLFLNWTEGQKSGFLRISNLQKQDQSVYFCRVELDTRSSGRQQWQSIEGTKLSIT
- glycan array binding signal (z-score) [1]: 0.013
- glycan array binding signal (z-score) [2]: 0.352
- glycan array binding signal (z-score) [3]: -0.014
- glycan array binding signal (z-score) [4]: -0.533
- glycan array binding signal (z-score) [5]: -0.099
- glycan array binding signal (z-score) [6]: -0.059
- glycan array binding signal (z-score) [7]: -0.538
- glycan array binding signal (z-score) [8]: 0.367
- glycan array binding signal (z-score) [9]: -0.204
- glycan array binding signal (z-score) [10]: 0.5
- glycan array binding signal (z-score) (Gal(b1-4)GlcNAc6P): -0.424
- glycan array binding signal (z-score) (Gal(b1-6)Gal): -0.56
- glycan array binding signal (z-score) (Gal3S(b1-3)GalNAc): -0.408
- glycan array binding signal (z-score) (Gal3S(b1-3)GlcNAc): -0.224
- glycan array binding signal (z-score) [11]: 0.119
- glycan array binding signal (z-score) (Gal3S(b1-4)Glc): 0.738
- glycan array binding signal (z-score) (Gal3S(b1-4)Glc6S): -0.075
- glycan array binding signal (z-score) (Gal3S(b1-4)GlcNAc): -0.09
- glycan array binding signal (z-score) [12]: 1.22
- glycan array binding signal (z-score) [13]: -0.482
- glycan array binding signal (z-score) [14]: 0.259
- glycan array binding signal (z-score) (Gal3S4S(b1-4)GlcNAc): -0.588
- glycan array binding signal (z-score) (Gal3S6S(b1-4)GlcNAc): -0.574
- glycan array binding signal (z-score) (Gal3S6S(b1-4)GlcNAc6S): 1.52
- glycan array binding signal (z-score) (Gal4S(b1-4)GlcNAc): -0.097
- glycan array binding signal (z-score) (Gal4S6S(b1-4)GlcNAc): 0.664
- glycan array binding signal (z-score) (Gal6P(b1-4)GlcNAc): -0.402
- glycan array binding signal (z-score) (Gal6S(b1-3)GlcNAc): -0.425
- glycan array binding signal (z-score) (Gal6S(b1-3)GlcNAc6S): -0.05
- glycan array binding signal (z-score) (Gal6S(b1-4)Glc): 0.108
- glycan array binding signal (z-score) (Gal6S(b1-4)Glc6S): -0.56
- glycan array binding signal (z-score) (Gal6S(b1-4)GlcNAc): 0.649
- glycan array binding signal (z-score) (Gal6S(b1-4)GlcNAc6S): -0.583
- glycan array binding signal (z-score) (GalNAc(a1-3)Gal): 0.654
- glycan array binding signal (z-score) (GalNAc(a1-3)GalNAc): -0.176
- glycan array binding signal (z-score) [15]: -0.201
- glycan array binding signal (z-score) [16]: -0.443
- glycan array binding signal (z-score) (GalNAc(b1-3)Gal): -0.373
- glycan array binding signal (z-score) [17]: 2.72
- glycan array binding signal (z-score) [18]: -0.895
- glycan array binding signal (z-score) [19]: -0.342
- glycan array binding signal (z-score) (GalNAc(b1-3)GalNAc): 0.066
- glycan array binding signal (z-score) (GalNAc(b1-3)GlcNAc): -0.236
- glycan array binding signal (z-score) (GalNAc(b1-4)Gal(b1-4)Glc): -0.226
- glycan array binding signal (z-score) (GalNAc(b1-4)GlcNAc): 8.03
